The results in this text go back to patent publication US20050171008A1 (priority 2002, published 2005).

The nature of this data set: general procedure: solution-phase peptide synthesis; DCCI/HOSu active ester; azide method; TPCK-trypsin enzymatic coupling.

As for Gly-Phe-Phe-Tyr-Lys(Boc)Obut, the step yield entry (late stage modification step) is “yield 93%”.

Z-Gly-Phe-Phe-Tyr-Lys (Boc) Obut yielded a step yield (coupling step) of 56%. As to ZGly-Phe-Phe-Tyr-NHNH2, under “late stage modification step”, the step yield is 65%. ZGly-Phe-Phe-Tyr-OC2H5 showed a step yield (coupling step) of 87%.
